Source: the supplement of paper PMC10849652
The list shows a part of the results.

Amino acid sequences for entries named in this document (tags omitted). A change or cut given only in a name is not applied to a line headed by its entry.
UniProt P02774: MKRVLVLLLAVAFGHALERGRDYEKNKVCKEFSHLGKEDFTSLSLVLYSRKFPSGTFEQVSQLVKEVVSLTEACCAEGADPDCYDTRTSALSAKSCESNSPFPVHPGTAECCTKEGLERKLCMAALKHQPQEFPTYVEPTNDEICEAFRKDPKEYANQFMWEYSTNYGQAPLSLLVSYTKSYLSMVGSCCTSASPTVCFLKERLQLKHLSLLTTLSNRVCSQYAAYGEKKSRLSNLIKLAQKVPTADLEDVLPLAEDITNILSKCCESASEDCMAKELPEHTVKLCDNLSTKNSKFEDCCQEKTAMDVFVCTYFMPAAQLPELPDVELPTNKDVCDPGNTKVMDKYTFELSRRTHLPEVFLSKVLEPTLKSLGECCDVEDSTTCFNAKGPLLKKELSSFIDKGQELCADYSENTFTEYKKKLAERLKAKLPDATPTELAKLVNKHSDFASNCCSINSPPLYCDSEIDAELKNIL
UniProt O43524: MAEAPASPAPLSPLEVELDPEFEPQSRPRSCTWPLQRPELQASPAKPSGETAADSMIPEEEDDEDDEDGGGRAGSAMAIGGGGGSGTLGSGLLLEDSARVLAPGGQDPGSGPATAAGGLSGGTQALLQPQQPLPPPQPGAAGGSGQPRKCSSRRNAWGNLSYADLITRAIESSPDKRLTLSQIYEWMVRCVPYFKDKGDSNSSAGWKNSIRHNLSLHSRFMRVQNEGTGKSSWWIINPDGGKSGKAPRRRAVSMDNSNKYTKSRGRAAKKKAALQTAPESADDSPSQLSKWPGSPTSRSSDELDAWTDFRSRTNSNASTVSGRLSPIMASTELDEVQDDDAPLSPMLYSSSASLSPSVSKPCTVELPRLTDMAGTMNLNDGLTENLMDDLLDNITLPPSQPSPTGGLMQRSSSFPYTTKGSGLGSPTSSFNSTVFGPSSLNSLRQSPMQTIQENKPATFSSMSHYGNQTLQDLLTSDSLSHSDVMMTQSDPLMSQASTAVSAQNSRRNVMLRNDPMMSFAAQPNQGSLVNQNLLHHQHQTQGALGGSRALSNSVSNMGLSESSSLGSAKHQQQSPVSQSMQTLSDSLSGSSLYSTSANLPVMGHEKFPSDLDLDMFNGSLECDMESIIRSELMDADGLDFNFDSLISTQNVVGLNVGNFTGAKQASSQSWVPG
UniProt Q8IXK2: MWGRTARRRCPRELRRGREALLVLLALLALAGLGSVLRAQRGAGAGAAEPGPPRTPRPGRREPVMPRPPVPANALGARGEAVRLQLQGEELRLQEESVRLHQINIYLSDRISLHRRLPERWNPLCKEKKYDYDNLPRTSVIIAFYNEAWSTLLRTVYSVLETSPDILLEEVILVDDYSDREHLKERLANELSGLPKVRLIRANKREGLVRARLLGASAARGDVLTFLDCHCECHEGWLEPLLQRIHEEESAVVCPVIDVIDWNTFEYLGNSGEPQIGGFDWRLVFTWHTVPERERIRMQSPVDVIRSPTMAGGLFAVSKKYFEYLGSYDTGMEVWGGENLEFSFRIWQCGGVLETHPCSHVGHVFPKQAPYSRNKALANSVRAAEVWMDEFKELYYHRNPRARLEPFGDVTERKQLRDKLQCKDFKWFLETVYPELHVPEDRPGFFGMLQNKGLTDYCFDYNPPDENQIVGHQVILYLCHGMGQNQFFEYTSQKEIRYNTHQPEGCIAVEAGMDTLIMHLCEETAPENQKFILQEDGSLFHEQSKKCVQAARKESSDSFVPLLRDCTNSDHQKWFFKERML
UniProt P11413, whole entry, looked up: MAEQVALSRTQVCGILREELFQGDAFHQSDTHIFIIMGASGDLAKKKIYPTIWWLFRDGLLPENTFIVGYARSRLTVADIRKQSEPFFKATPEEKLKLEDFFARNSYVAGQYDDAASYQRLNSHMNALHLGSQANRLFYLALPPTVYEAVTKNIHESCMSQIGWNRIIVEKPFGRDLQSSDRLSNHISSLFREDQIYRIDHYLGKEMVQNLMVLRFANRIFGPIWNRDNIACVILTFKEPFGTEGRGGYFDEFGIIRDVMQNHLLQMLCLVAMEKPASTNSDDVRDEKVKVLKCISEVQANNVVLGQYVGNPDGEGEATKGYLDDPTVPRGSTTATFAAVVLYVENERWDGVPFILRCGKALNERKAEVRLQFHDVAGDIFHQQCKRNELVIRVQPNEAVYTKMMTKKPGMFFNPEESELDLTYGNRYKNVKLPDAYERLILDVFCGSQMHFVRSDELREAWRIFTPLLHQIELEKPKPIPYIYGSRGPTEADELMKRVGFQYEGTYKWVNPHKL
UniProt Q96DB9: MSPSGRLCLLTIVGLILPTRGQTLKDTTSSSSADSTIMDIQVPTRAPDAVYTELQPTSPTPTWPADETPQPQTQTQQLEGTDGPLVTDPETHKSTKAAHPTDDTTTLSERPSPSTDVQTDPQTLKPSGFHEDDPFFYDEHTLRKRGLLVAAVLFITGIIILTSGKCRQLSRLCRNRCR
UniProt P19440: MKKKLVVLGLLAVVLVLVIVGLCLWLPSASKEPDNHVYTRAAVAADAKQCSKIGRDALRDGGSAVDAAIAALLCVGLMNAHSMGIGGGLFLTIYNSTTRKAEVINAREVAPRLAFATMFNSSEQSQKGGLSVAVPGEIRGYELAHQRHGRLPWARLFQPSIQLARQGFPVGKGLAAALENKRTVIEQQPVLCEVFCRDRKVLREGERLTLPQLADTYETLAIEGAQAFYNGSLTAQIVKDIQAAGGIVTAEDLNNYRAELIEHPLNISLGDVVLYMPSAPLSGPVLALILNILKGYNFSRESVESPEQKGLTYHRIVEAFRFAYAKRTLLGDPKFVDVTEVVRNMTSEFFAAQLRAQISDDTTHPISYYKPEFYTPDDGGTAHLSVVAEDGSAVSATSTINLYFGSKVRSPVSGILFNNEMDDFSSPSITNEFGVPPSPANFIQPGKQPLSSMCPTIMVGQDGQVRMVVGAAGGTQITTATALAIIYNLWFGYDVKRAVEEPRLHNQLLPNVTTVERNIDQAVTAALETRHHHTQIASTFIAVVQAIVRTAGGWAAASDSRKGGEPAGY
UniProt A2VDF0: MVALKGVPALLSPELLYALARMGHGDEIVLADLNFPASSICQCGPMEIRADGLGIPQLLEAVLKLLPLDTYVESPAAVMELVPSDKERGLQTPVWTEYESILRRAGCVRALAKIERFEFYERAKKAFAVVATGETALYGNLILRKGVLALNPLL
UniProt Q8IWF2: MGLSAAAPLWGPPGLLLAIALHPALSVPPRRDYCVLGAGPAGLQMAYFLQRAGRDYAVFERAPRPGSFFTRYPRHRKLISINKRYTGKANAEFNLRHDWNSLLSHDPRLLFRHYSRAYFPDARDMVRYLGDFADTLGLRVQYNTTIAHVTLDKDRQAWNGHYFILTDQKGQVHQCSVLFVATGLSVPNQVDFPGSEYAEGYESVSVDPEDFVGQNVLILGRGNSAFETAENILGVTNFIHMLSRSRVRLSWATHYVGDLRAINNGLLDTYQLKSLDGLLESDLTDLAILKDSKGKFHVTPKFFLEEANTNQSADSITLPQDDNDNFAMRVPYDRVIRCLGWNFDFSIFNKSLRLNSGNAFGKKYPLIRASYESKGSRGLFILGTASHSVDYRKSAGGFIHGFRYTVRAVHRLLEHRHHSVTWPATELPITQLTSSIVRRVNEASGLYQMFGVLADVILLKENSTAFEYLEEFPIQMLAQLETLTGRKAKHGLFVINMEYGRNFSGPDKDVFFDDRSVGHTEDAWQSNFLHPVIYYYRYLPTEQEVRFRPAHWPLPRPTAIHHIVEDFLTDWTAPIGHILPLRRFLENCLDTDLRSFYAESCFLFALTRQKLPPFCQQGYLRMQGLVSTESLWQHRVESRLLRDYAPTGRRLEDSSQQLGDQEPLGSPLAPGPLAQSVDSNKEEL
UniProt O43716: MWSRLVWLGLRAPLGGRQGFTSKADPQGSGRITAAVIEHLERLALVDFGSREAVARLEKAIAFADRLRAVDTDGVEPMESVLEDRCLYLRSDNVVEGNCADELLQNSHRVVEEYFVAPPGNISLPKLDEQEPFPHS
UniProt Q96CN9: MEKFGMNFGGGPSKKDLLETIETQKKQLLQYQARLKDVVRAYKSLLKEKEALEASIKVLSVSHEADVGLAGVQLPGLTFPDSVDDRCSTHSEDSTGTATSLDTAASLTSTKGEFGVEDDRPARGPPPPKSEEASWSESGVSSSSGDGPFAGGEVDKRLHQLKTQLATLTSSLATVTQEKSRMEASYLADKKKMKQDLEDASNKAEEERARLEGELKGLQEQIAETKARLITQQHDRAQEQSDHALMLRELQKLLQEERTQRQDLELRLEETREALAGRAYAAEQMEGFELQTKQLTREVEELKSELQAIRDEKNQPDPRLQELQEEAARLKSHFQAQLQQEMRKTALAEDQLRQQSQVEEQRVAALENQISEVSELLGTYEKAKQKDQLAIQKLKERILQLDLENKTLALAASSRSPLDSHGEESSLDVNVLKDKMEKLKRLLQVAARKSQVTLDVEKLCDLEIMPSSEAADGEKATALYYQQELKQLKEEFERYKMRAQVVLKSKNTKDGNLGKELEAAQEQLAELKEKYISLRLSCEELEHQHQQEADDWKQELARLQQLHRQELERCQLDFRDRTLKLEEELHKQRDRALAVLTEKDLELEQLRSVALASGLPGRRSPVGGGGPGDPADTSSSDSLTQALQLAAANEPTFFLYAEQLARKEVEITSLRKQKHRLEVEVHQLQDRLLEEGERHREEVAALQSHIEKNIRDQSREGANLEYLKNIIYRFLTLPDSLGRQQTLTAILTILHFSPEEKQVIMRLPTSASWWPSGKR
UniProt Q969S9: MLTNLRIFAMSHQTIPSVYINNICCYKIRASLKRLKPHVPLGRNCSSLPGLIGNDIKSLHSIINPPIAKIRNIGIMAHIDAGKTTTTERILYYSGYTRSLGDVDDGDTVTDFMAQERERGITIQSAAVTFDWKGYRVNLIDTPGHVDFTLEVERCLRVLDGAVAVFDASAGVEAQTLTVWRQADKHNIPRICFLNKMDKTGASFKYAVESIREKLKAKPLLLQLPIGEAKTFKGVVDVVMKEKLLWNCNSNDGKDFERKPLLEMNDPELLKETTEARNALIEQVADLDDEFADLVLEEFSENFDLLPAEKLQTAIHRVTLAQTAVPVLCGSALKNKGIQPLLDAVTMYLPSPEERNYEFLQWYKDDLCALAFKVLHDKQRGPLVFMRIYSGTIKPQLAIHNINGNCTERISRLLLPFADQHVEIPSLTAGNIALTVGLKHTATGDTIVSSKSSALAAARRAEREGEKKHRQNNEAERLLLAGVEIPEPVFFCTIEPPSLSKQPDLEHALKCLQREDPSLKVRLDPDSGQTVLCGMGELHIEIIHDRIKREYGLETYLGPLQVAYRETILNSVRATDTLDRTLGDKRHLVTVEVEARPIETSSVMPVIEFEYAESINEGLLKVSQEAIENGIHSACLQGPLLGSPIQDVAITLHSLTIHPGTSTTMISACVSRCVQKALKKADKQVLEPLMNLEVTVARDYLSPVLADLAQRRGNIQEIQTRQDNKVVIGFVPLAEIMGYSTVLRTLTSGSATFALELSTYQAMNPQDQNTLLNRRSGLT
UniProt Q7L5L3: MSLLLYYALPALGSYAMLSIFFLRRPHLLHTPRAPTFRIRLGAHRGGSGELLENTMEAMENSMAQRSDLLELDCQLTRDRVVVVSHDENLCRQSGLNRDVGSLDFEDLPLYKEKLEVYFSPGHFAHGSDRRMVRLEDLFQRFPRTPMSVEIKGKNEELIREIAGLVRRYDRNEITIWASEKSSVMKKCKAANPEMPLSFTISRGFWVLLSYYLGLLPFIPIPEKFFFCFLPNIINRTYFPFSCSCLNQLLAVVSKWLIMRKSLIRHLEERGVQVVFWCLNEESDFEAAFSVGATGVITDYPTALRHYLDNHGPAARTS
UniProt Q9UET6: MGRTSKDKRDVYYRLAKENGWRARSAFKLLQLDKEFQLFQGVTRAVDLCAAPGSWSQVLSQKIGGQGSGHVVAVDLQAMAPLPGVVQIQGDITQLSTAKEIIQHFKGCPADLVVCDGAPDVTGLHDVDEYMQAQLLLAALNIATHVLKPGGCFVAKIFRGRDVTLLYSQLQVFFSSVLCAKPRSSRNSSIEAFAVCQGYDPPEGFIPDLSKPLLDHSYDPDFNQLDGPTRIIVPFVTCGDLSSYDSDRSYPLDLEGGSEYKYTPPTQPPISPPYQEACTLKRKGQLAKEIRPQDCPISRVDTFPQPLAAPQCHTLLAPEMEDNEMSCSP
UniProt Q9H840: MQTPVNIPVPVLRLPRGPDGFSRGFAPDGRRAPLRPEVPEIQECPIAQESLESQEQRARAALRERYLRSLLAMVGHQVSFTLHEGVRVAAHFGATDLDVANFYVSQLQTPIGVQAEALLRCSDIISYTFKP
UniProt Q8IVV7: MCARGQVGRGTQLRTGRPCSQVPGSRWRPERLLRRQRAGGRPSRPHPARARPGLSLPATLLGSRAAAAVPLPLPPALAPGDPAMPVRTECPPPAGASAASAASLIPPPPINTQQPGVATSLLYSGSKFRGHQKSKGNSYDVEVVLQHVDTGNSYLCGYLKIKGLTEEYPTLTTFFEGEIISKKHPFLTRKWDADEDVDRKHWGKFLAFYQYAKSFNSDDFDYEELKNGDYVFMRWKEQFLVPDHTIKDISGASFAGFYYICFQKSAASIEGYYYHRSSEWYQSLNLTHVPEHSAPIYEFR

Experiments:
Assay in all cases: log2 fold change, soluble protein after heating vs DMSO (PISA); higher = thermal stabilisation; K562 cells, 10 uM, 30 min; active = over 0.2 and 3.5 SD of the protein, either way, in both replicates (recomputed)
[1] = compound: COC1=CC=C(C=C1)CN2C=CC3=C2C=C(C=C3)C(=O)NO
Outline: (§1)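 Thermal stability values are relative to control samples and come from duplicates. They are expressed as log2 fold changes. For measurement, K562 cells (2×10^6 cells/mL) received 10 μM compound for 30 min, and aliquots were heated for 3 min over 48°C-58°C, pooled, and extracted at 4°C in PBS with 0.5% NP-40. Soluble protein, the supernatant after 21,000xg for 90 min, was quantified by TMTpro 16plex LC-MS/MS with equalised channel sums.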

filanesib = compound: CON(C)C(=O)N1N=C(c2cc(F)ccc2F)S[C@@]1(CCCN)c1ccccc1 [filanesib]
Outline: as §1

zotarolimus = compound: CO[C@H]1C[C@@H]2CC[C@@H](C)[C@@](O)(O2)C(=O)C(=O)N2CCCC[C@H]2C(=O)O[C@H]([C@H](C)C[C@@H]2CC[C@H](n3cnnn3)[C@H](OC)C2)CC(=O)[C@H](C)/C=C(\C)[C@@H](O)[C@@H](OC)C(=O)[C@H](C)C[C@H](C)/C=C/C=C/C=C/1C [zotarolimus]
Outline: as §1

idasanutlin = compound: COc1cc(C(=O)O)ccc1NC(=O)[C@@H]1N[C@@H](CC(C)(C)C)[C@](C#N)(c2ccc(Cl)cc2F)[C@H]1c1cccc(Cl)c1F [idasanutlin]
Outline: as §1

alisertib = compound: COc1cc(Nc2ncc3c(n2)-c2ccc(Cl)cc2C(c2c(F)cccc2OC)=NC3)ccc1C(=O)O [alisertib]
Outline: as §1

[2] = compound: COc1cc2nc(-c3cc(F)ccc3O)nc(N[C@@H]3CNC[C@H]3C(C)(C)O)c2cc1OC
Outline: as §1

gefitinib = compound: COc1cc2ncnc(Nc3ccc(F)c(Cl)c3)c2cc1OCCCN1CCOCC1 [gefitinib]
Outline: as §1

[3] = compound: COc1cccc2cc(-c3nc([C@H]4CC[C@H](C(=O)O)CC4)n4ncnc(N)c34)[nH]c12
Outline: as §1

lapatinib = compound: CS(=O)(=O)CCNCc1ccc(-c2ccc3ncnc(Nc4ccc(OCc5cccc(F)c5)c(Cl)c4)c3c2)o1 [lapatinib]
Outline: as §1

pictilisib = compound: CS(=O)(=O)N1CCN(Cc2cc3nc(-c4cccc5[nH]ncc45)nc(N4CCOCC4)c3s2)CC1 [pictilisib]
Outline: as §1

Measured: log2 fold change

GAR1 (UniProt Q9NY12)
inactive: [1] -0.064 | filanesib 0.376 | zotarolimus 0.03 | idasanutlin 0.209 | alisertib -0.067 | [2] -0.003 | gefitinib 0.002 | [3] -0.095 | lapatinib 0.023 | pictilisib -0.091

FPGT (UniProt O14772)
inactive: [1] 0.001 | filanesib -0.088 | zotarolimus -0.027 | idasanutlin -0.078 | alisertib -0.048 | [2] 0.029 | gefitinib -0.036 | [3] 0.048 | lapatinib 0.042 | pictilisib -0.021

GC isoform 3 (UniProt P02774)
inactive: [1] -0.717 | filanesib 0.228 | zotarolimus 0.022 | idasanutlin -0.058 | [2] -0.237 | gefitinib -0.068 | lapatinib 0.264 | pictilisib 0.231

FPGS (UniProt Q05932)
inactive: [1] -0.073 | filanesib 0.026 | zotarolimus 0.151 | alisertib -0.035 | [2] 0.183 | [3] -0.077 | lapatinib -0.102 | pictilisib -0.005

GAB2 (UniProt Q9UQC2)
inactive: [1] 0.044 | filanesib -0.053 | zotarolimus -0.145 | idasanutlin 0.084 | alisertib 0.007 | [2] -0.526 | [3] -0.236 | lapatinib 0.033 | pictilisib -0.348

FOXO3 (UniProt O43524)
inactive: [1] 0.027 | filanesib -0.069 | zotarolimus 0.083 | idasanutlin 0.154 | alisertib 0.149 | [2] -0.067 | [3] -0.068 | lapatinib -0.106 | pictilisib -0.09

GAA (UniProt P10253)
inactive: [1] -0.135 | filanesib -0.107 | idasanutlin 0.042 | alisertib 0.21 | [3] 0.243 | pictilisib 0.128

FUT8 (UniProt Q9BYC5)
inactive: [1] -0.156 | filanesib -0.043 | zotarolimus -0.019 | idasanutlin -0.066 | alisertib 0.022 | gefitinib 0.084 | [3] -0.03 | pictilisib -0.032

GALNT12 (UniProt Q8IXK2)
inactive: [1] -0.014 | filanesib 0.028 | zotarolimus 0.008 | idasanutlin 0.011 | alisertib 0.247 | [2] -0.074 | [3] -0.106 | lapatinib -0.006 | pictilisib -0.04

GAN (UniProt Q9H2C0)
inactive: [1] -0.009 | filanesib -0.102 | zotarolimus 0.018 | idasanutlin -0.141 | alisertib 0.113 | [2] -0.011 | gefitinib 0.048 | [3] 0.095 | lapatinib -0.003 | pictilisib 0.063

GDI2 (UniProt P50395)
inactive: [1] -0.014 | filanesib -0.031 | zotarolimus 0.028 | idasanutlin -0.019 | alisertib -0.002 | [2] -0.009 | gefitinib 0 | [3] 0.01 | lapatinib -0.003 | pictilisib -0.059

GALNT7 (UniProt H0YAH3)
inactive: [1] 0.043 | zotarolimus 0.298

FYB1 isoform 3 (UniProt O15117)
inactive: [1] 0.001 | filanesib 0.06 | idasanutlin -0.106 | alisertib -0.035 | [2] 0.026 | gefitinib 0.103 | [3] 0.134 | lapatinib 0.068 | pictilisib 0.108

GDAP2 (UniProt Q9NXN4)
inactive: [1] -0.133 | filanesib 0.213 | idasanutlin 0.133 | alisertib -0.033 | gefitinib 0.472 | [3] 0.066

FOXJ3 (UniProt Q9UPW0)
inactive: [1] 0.01 | zotarolimus 0.05 | idasanutlin -0.028 | alisertib 0.269 | [2] -0.06 | gefitinib 0.045 | [3] 0.067 | lapatinib 0.12

G6PD isoform 2 (UniProt P11413)
inactive: [1] -0.006 | filanesib -0.117 | zotarolimus 0.019 | idasanutlin 0.002 | alisertib -0.03 | [2] 0.043 | gefitinib 0.017 | [3] 0.013 | lapatinib -0.017 | pictilisib -0.003

GFOD1 (UniProt Q9NXC2)
inactive: [1] -0.921 | [2] 0.259 | lapatinib -1.04 | pictilisib -0.018

GBE1 (UniProt Q04446)
inactive: [1] 0.048 | zotarolimus 0.045 | idasanutlin 0.002 | alisertib 0.019 | [2] -0.168 | [3] -0.102 | lapatinib -0.022

FXYD5 (UniProt Q96DB9)
inactive: [1] -0.091 | filanesib 0.522 | zotarolimus -0.007 | idasanutlin 0.034 | [2] -0.003 | lapatinib -0.264 | pictilisib 0.504

GGT1 (UniProt P19440)
inactive: [1] -0.091 | filanesib 0.051 | idasanutlin 0.037 | alisertib 0.01 | [2] -0.176 | [3] 0.117 | lapatinib -0.045 | pictilisib 0.112

GDPD1 (UniProt Q8N9F7)
active: [1] 0.353
inactive: filanesib 0.056 | zotarolimus 0.13 | idasanutlin 0.156 | alisertib -0.068 | [2] 0.208 | gefitinib 0.067 | [3] 0.021 | lapatinib 0.04 | pictilisib 0.085

GAMT (UniProt Q14353)
inactive: [1] 0.129 | filanesib 0.037 | zotarolimus 0.181 | idasanutlin 0.212 | alisertib -0.161 | [2] 0.075 | gefitinib 0.039 | [3] 0.069 | lapatinib -0.251 | pictilisib 0.124

FUOM (UniProt A2VDF0)
inactive: [1] -0.097 | filanesib 0.017 | zotarolimus 0.1 | alisertib 0.349 | gefitinib -0.069 | [3] 0.14

GABPB1 (UniProt Q06547)
inactive: [1] 0.002 | filanesib -0.173 | [2] -0.021 | lapatinib 0.007

GATB (UniProt O75879)
inactive: [1] 0.185 | filanesib 0.047 | idasanutlin -0.464 | alisertib -0.047 | [2] 0.282 | gefitinib 0.046 | [3] 0.013 | lapatinib -0.225 | pictilisib 0.34

FOXRED2 (UniProt Q8IWF2)
inactive: [1] -0.035 | zotarolimus -0.152 | idasanutlin -0.039 | alisertib -0.251 | [2] -0.06 | [3] 0.015 | lapatinib 0.01

GATC (UniProt O43716)
inactive: [1] -0.112 | zotarolimus -0.04 | idasanutlin -0.149 | alisertib 0 | [2] -0.234 | gefitinib -0.04 | [3] 0.112 | lapatinib 0 | pictilisib 0.015

GAPVD1 isoform 6 (UniProt Q14C86)
inactive: [1] 0.003 | filanesib 0.033 | zotarolimus 0.055 | idasanutlin -0.021 | alisertib 0.047 | [2] -0.048 | gefitinib -0.013 | [3] -0.068 | lapatinib 0.041 | pictilisib -0.025

GALK1 isoform 2 (UniProt P51570)
inactive: [1] -0.023 | filanesib -0.201 | zotarolimus 0.012 | idasanutlin -0.106 | alisertib -0.125 | [2] -0.049 | gefitinib -0.005 | [3] 0.036 | lapatinib 0.147 | pictilisib -0.05

GATAD2B (UniProt Q8WXI9)
inactive: [1] 0.205 | filanesib 0.03 | alisertib -0.15 | [2] -0.05 | [3] -0.075 | lapatinib 0.054

GALNT6 (UniProt Q8NCL4)
inactive: [1] 0.086 | filanesib 0.018 | idasanutlin 0.036 | alisertib 0.212 | [2] 0.02 | gefitinib -0.001 | [3] 0.19 | lapatinib 0.043

GALT (UniProt P07902)
inactive: [1] 0.005 | filanesib 0.056 | zotarolimus -0.012 | idasanutlin -0.082 | alisertib -0.074 | [2] -0.028 | gefitinib -0.091 | [3] 0.04 | lapatinib 0.02 | pictilisib 0.017

GCC1 (UniProt Q96CN9)
inactive: [1] 0.026 | gefitinib -0.19 | pictilisib -0.152

GARS1 (UniProt H7C443)
inactive: [1] -0.5 | filanesib 0.206 | zotarolimus -0.013 | idasanutlin 0.018 | alisertib -0.011 | [2] 0.215 | gefitinib -0.032 | [3] 0.122 | lapatinib -0.409 | pictilisib 0.28

GDF15 (UniProt Q99988)
inactive: [1] -0.063 | zotarolimus -0.042 | idasanutlin 0.023 | alisertib -0.222 | [2] -0.043 | gefitinib 0.075 | [3] -0.247 | lapatinib 0.038

FZD5 (UniProt Q13467)
inactive: filanesib 0.04 | alisertib -0.056 | [2] 0.018 | [3] 0.067 | lapatinib -0.152

GGACT (UniProt Q9BVM4)
inactive: alisertib -0.013 | [3] 0.029

GFM2 (UniProt Q969S9)
inactive: alisertib -0.228 | [3] 0.002

GEMIN8 (UniProt Q9NWZ8)
inactive: zotarolimus -0.011 | idasanutlin 0.132 | [2] 0.36 | gefitinib 0.163 | lapatinib 0.03

GATA2 (UniProt P23769)
inactive: filanesib 0.264 | zotarolimus 0.029 | idasanutlin 0.011 | alisertib 0.083 | [2] 0.111 | gefitinib -0.073 | [3] -0.075 | lapatinib 0.027 | pictilisib 0.078

FZD1 (UniProt Q9UP38)
inactive: filanesib -0.06 | zotarolimus 0.258 | gefitinib -0.274

GCFC2 (UniProt P16383)
inactive: filanesib -0.078 | zotarolimus 0.071 | idasanutlin 0.04 | alisertib -0.078 | [2] 0.085 | gefitinib -0.029 | [3] 0.088 | lapatinib 0.044 | pictilisib -0.04

GDPGP1 (UniProt Q6ZNW5)
inactive: zotarolimus 0.291 | idasanutlin 0.098 | alisertib -0.012 | [2] -0.097 | gefitinib -0.03 | [3] 0.099 | lapatinib 0.137

GDPD3 (UniProt Q7L5L3)
inactive: idasanutlin 0.063 | [2] 0.008 | lapatinib -0.073 | pictilisib -0.041

GANAB (UniProt Q14697)
inactive: alisertib -0.122 | [2] 0.052 | [3] -0.099 | lapatinib -0.413

GCFC2 isoform 3 (UniProt P16383)
inactive: [2] -0.111 | lapatinib 0.034

FTSJ1 isoform 2 (UniProt Q9UET6)
inactive: filanesib 0.019

3 successive entries already listed, quoted:
FPGS (UniProt Q05932)
inactive: [1] -0.073 | filanesib 0.026 | zotarolimus 0.151 | alisertib -0.035 | [2] 0.183 | [3] -0.077 | lapatinib -0.102 | pictilisib -0.005

GAB2 (UniProt Q9UQC2)
inactive: [1] 0.044 | filanesib -0.053 | zotarolimus -0.145 | idasanutlin 0.084 | alisertib 0.007 | [2] -0.526 | [3] -0.236 | lapatinib 0.033 | pictilisib -0.348

FOXO3 (UniProt O43524)
inactive: [1] 0.027 | filanesib -0.069 | zotarolimus 0.083 | idasanutlin 0.154 | alisertib 0.149 | [2] -0.067 | [3] -0.068 | lapatinib -0.106 | pictilisib -0.09

(further entries)

FTSJ3 (UniProt Q8IY81)
inactive: filanesib 0.377 | zotarolimus 0.254 | idasanutlin 0.316 | [2] -0.086 | lapatinib 0.104 | pictilisib -0.387

FYTTD1 (UniProt Q96QD9)
inactive: zotarolimus -0.007 | idasanutlin 0.156 | pictilisib -0.024

GAGE1 (UniProt Q13065)
inactive: alisertib 0.177 | gefitinib 0.067 | [3] -0.025

G0S2 (UniProt P27469)
inactive: alisertib 0.124 | [3] -0.094

GABPB1 isoform 3 (UniProt Q06547)
inactive: zotarolimus 0.331 | alisertib 0.036 | [2] -0.008 | [3] -0.002 | lapatinib -0.212 | pictilisib -0.175

GCG (UniProt P01275)
inactive: zotarolimus -0.118

GEMIN7 (UniProt Q9H840)
inactive: alisertib -0.344 | [3] 0.078 | pictilisib -0.168

GID4 (UniProt Q8IVV7)
inactive: filanesib -0.089 | zotarolimus 0.013 | idasanutlin -0.023 | alisertib -0.074 | [2] 0.097 | gefitinib -0.067 | [3] 0.01 | lapatinib -0.14 | pictilisib 0.024
